# Experimental data taken from paper PMC8384837.
# Positions count from the first letter of the chain named. The list shows a part of the results. At the low end of the ranking the order means little.
# Legend:
# Settings in all cases: yeast three-hybrid, YBZ-1, SC-Leu-His + 0.5 mM 3-AT, 4 days
# [1] = biological target: T1, PUM1 PUF domain R4-ERQ N971E + H972R (UniProt Q14671)
# T1 sequence: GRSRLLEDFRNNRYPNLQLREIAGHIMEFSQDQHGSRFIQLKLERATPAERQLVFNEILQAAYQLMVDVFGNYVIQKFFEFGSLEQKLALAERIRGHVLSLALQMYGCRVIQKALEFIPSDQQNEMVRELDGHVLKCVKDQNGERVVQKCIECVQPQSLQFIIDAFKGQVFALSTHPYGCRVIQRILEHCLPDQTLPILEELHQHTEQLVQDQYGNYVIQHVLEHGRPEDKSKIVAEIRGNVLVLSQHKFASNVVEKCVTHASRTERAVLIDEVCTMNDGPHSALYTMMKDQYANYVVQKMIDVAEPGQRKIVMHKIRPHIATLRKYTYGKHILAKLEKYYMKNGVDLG
# [2] = biological target: T2, PUM1 PUF domain R4-FNG N971F + H972N + Q975G (UniProt Q14671)
# T2 sequence: T1 sequence with E144F, R145N, Q148G
# [3] = biological target: T3, PUM1 PUF domain R4-GND N971G + H972N + Q975D (UniProt Q14671)
# T3 sequence: T1 sequence with E144G, R145N, Q148D
# [4] = biological target: T4, PUM1 PUF domain R4-GQR N971G + H972Q + Q975R (UniProt Q14671)
# T4 sequence: T1 sequence with E144G, R145Q, Q148R
# [5] = biological target: T5, PUM1 PUF domain R4-GRR N971G + H972R + Q975R (UniProt Q14671)
# T5 sequence: T1 sequence with E144G, Q148R
# [6] = biological target: T6, PUM1 PUF domain R4-MNR N971M + H972N + Q975R (UniProt Q14671)
# T6 sequence: T1 sequence with E144M, R145N, Q148R
# [7] = biological target: T7, PUM1 PUF domain R4-MNV N971M + H972N + Q975V (UniProt Q14671)
# T7 sequence: T1 sequence with E144M, R145N, Q148V
# [8] = biological target: T8, PUM1 PUF domain R4-SHP N971S + Q975P (UniProt Q14671)
# T8 sequence: T1 sequence with E144S, R145H, Q148P
# [9] = biological target: T9, PUM1 PUF domain R4-SRR N971S + H972R + Q975R (UniProt Q14671)
# T9 sequence: T1 sequence with E144S, Q148R
# [10] = biological target: T10, PUM1 PUF domain R4-VFP N971V + H972F + Q975P (UniProt Q14671)
# T10 sequence: T1 sequence with E144V, R145F, Q148P
# [11] = biological target: T11, PUM1 PUF domain R5-GSK C1007G + R1008S + Q1011K (UniProt Q14671)
# T11 sequence: T1 sequence with E144N, R145H, C180G, R181S, Q184K
# [12] = biological target: T12, PUM1 PUF domain R5-KAG C1007K + R1008A + Q1011G (UniProt Q14671)
# T12 sequence: T1 sequence with E144N, R145H, C180K, R181A, Q184G
# [13] = biological target: T13, PUM1 PUF domain R5-KLI C1007K + R1008L + Q1011I (UniProt Q14671)
# T13 sequence: T1 sequence with E144N, R145H, C180K, R181L, Q184I
# [14] = biological target: T14, PUM1 PUF domain R5-KPL C1007K + R1008P + Q1011L (UniProt Q14671)
# T14 sequence: T1 sequence with E144N, R145H, C180K, R181P, Q184L
# [15] = biological target: T15, PUM1 PUF domain R5-KRW C1007K + Q1011W (UniProt Q14671)
# T15 sequence: T1 sequence with E144N, R145H, C180K, Q184W
# [16] = biological target: T16, PUM1 PUF domain R5-NLL C1007N + R1008L + Q1011L (UniProt Q14671)
# T16 sequence: T1 sequence with E144N, R145H, C180N, R181L, Q184L
# [17] = biological target: T17, PUM1 PUF domain R5-QGR C1007Q + R1008G + Q1011R (UniProt Q14671)
# T17 sequence: T1 sequence with E144N, R145H, C180Q, R181G, Q184R
# [18] = biological target: T18, PUM1 PUF domain R5-RKV C1007R + R1008K + Q1011V (UniProt Q14671)
# T18 sequence: T1 sequence with E144N, R145H, C180R, R181K, Q184V
# [19] = biological target: T19, PUM1 PUF domain R5-RVC C1007R + R1008V + Q1011C (UniProt Q14671)
# T19 sequence: T1 sequence with E144N, R145H, C180R, R181V, Q184C
# [20] = biological target: T20, PUM1 PUF domain R5-SGV C1007S + R1008G + Q1011V (UniProt Q14671)
# T20 sequence: T1 sequence with E144N, R145H, C180S, R181G, Q184V
sequence,measurement,setting,value
GGCUAGAACUAGUGGAUCCCCCGGCGCCCGGCGGCUCGAGCCCGGGUAAGUGUAAAUAGUCUGCAUGCCGCCGGGCGCCAUGCCUGCAGGUCGACUCUAGAAAACAUG,binding signal (log2 enrichment (interaction score)),[1],< -5.36
same,binding signal (log2 enrichment (interaction score)),[2],< -7.65
same,binding signal (log2 enrichment (interaction score)),[3],< -4.99
same,binding signal (log2 enrichment (interaction score)),[4],< -8.26
same,binding signal (log2 enrichment (interaction score)),[5],-7.37
same,binding signal (log2 enrichment (interaction score)),[6],< -4.91
same,binding signal (log2 enrichment (interaction score)),[7],< -5.46
same,binding signal (log2 enrichment (interaction score)),[8],< -5.22
same,binding signal (log2 enrichment (interaction score)),[9],< -7.96
same,binding signal (log2 enrichment (interaction score)),[10],< -6.43
same,binding signal (log2 enrichment (interaction score)),[11],-2.42
same,binding signal (log2 enrichment (interaction score)),[12],-2.06
same,binding signal (log2 enrichment (interaction score)),[13],-2.45
same,binding signal (log2 enrichment (interaction score)),[14],-2.44
same,binding signal (log2 enrichment (interaction score)),[15],< -6.5
same,binding signal (log2 enrichment (interaction score)),[16],-2.31
same,binding signal (log2 enrichment (interaction score)),[17],-2.5
same,binding signal (log2 enrichment (interaction score)),[18],-2.29
same,binding signal (log2 enrichment (interaction score)),[19],-2.32
same,binding signal (log2 enrichment (interaction score)),[20],-3.48

# Nothing new here: entries from further up.
sequence,measurement,setting,value
GGCUAGAACUAGUGGAUCCCCCGGCGCCCGGCGGCUCGAGCCCGGGUAAGUGUAAAUAGUCUGCAUGCCGCCGGGCGCCAUGCCUGCAGGUCGACUCUAGAAAACAUG,binding signal (log2 enrichment (interaction score)),[12],-2.06
same,binding signal (log2 enrichment (interaction score)),[13],-2.45
